Assay [1] concerns the target Chromodomain helicase DNA-binding protein 8 (CHD8), endogenous (human (endogenous in hNSCs)) (UniProt Q9HCK8). Put plainly: co-IP; endogenous proteins in 250 ul hNSC nuclear extract with 38 units Benzonase; TRRAP antibody or CHD8 antibody, 2 h at 4°C, ProtG Dynabeads in C-100 buffer; IgG control; western blot.
Assay [2] concerns the target TRRAP (human (endogenous in hNSCs)) (UniProt Q9Y4A5). The assay is described as above.

By UniProt entry, the sequences of proteins in these tests, tags left out.
UniProt Q9HCK8: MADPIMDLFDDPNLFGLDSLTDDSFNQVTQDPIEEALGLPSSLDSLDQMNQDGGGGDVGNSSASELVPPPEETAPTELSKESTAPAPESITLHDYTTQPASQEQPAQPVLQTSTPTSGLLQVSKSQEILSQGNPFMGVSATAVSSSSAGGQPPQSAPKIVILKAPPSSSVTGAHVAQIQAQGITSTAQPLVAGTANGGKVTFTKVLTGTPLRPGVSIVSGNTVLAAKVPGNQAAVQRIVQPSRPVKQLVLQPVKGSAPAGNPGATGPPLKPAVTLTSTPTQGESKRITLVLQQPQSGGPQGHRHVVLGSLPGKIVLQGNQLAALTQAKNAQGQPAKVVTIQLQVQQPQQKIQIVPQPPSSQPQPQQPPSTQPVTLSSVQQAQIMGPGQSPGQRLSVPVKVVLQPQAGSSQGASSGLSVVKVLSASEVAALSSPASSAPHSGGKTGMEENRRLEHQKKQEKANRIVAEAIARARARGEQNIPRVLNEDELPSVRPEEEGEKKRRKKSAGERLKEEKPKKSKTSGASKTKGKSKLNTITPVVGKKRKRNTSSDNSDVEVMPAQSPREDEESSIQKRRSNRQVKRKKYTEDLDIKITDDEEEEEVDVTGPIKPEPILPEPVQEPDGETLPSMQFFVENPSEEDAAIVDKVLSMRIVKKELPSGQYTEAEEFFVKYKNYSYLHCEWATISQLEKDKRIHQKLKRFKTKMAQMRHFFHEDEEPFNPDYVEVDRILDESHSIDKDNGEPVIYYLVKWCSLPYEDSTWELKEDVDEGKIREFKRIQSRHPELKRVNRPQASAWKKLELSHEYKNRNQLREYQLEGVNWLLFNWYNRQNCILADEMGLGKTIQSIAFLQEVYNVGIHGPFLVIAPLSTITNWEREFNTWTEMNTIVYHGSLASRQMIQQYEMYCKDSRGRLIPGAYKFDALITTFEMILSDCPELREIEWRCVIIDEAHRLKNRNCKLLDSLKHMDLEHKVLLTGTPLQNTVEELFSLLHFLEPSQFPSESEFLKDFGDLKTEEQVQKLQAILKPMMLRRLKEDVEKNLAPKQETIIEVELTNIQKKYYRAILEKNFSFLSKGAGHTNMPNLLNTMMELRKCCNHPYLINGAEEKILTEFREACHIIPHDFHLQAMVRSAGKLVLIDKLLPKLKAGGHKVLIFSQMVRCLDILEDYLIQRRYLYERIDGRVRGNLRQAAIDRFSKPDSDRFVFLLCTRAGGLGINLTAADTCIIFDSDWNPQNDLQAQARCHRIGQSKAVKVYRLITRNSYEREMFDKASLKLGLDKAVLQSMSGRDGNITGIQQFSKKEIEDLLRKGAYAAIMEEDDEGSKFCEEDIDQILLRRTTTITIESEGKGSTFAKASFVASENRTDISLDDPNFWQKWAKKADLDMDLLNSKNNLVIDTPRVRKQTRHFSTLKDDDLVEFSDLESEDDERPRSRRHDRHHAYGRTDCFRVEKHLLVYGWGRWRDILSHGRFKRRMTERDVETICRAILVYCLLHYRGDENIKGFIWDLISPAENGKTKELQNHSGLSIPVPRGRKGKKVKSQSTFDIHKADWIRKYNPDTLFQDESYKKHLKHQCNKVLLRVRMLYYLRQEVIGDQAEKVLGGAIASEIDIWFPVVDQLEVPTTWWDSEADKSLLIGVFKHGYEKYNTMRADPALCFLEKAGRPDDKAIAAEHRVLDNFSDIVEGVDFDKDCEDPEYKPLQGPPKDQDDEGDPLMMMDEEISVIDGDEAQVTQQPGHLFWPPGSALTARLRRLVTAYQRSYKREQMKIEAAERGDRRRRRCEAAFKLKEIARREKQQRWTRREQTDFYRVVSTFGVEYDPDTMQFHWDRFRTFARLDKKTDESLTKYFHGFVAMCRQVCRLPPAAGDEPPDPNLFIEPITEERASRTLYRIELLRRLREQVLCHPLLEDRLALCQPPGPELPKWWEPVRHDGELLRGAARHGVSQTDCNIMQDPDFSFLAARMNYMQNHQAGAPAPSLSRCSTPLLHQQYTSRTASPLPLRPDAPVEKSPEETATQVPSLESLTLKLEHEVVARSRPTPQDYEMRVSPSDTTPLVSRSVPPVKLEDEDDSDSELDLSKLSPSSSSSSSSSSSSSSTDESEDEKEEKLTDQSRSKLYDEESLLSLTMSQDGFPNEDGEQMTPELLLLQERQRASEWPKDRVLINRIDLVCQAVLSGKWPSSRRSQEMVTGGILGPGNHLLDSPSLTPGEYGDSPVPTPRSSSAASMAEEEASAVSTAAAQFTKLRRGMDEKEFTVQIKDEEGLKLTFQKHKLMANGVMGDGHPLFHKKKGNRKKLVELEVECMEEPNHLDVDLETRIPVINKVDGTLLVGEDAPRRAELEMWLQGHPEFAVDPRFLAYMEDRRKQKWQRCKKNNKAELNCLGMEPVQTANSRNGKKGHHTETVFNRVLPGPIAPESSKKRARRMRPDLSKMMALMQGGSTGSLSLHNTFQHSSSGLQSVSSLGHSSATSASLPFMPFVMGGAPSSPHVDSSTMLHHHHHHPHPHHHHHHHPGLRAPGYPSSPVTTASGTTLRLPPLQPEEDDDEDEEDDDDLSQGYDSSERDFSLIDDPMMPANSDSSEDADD
UniProt Q9Y4A5: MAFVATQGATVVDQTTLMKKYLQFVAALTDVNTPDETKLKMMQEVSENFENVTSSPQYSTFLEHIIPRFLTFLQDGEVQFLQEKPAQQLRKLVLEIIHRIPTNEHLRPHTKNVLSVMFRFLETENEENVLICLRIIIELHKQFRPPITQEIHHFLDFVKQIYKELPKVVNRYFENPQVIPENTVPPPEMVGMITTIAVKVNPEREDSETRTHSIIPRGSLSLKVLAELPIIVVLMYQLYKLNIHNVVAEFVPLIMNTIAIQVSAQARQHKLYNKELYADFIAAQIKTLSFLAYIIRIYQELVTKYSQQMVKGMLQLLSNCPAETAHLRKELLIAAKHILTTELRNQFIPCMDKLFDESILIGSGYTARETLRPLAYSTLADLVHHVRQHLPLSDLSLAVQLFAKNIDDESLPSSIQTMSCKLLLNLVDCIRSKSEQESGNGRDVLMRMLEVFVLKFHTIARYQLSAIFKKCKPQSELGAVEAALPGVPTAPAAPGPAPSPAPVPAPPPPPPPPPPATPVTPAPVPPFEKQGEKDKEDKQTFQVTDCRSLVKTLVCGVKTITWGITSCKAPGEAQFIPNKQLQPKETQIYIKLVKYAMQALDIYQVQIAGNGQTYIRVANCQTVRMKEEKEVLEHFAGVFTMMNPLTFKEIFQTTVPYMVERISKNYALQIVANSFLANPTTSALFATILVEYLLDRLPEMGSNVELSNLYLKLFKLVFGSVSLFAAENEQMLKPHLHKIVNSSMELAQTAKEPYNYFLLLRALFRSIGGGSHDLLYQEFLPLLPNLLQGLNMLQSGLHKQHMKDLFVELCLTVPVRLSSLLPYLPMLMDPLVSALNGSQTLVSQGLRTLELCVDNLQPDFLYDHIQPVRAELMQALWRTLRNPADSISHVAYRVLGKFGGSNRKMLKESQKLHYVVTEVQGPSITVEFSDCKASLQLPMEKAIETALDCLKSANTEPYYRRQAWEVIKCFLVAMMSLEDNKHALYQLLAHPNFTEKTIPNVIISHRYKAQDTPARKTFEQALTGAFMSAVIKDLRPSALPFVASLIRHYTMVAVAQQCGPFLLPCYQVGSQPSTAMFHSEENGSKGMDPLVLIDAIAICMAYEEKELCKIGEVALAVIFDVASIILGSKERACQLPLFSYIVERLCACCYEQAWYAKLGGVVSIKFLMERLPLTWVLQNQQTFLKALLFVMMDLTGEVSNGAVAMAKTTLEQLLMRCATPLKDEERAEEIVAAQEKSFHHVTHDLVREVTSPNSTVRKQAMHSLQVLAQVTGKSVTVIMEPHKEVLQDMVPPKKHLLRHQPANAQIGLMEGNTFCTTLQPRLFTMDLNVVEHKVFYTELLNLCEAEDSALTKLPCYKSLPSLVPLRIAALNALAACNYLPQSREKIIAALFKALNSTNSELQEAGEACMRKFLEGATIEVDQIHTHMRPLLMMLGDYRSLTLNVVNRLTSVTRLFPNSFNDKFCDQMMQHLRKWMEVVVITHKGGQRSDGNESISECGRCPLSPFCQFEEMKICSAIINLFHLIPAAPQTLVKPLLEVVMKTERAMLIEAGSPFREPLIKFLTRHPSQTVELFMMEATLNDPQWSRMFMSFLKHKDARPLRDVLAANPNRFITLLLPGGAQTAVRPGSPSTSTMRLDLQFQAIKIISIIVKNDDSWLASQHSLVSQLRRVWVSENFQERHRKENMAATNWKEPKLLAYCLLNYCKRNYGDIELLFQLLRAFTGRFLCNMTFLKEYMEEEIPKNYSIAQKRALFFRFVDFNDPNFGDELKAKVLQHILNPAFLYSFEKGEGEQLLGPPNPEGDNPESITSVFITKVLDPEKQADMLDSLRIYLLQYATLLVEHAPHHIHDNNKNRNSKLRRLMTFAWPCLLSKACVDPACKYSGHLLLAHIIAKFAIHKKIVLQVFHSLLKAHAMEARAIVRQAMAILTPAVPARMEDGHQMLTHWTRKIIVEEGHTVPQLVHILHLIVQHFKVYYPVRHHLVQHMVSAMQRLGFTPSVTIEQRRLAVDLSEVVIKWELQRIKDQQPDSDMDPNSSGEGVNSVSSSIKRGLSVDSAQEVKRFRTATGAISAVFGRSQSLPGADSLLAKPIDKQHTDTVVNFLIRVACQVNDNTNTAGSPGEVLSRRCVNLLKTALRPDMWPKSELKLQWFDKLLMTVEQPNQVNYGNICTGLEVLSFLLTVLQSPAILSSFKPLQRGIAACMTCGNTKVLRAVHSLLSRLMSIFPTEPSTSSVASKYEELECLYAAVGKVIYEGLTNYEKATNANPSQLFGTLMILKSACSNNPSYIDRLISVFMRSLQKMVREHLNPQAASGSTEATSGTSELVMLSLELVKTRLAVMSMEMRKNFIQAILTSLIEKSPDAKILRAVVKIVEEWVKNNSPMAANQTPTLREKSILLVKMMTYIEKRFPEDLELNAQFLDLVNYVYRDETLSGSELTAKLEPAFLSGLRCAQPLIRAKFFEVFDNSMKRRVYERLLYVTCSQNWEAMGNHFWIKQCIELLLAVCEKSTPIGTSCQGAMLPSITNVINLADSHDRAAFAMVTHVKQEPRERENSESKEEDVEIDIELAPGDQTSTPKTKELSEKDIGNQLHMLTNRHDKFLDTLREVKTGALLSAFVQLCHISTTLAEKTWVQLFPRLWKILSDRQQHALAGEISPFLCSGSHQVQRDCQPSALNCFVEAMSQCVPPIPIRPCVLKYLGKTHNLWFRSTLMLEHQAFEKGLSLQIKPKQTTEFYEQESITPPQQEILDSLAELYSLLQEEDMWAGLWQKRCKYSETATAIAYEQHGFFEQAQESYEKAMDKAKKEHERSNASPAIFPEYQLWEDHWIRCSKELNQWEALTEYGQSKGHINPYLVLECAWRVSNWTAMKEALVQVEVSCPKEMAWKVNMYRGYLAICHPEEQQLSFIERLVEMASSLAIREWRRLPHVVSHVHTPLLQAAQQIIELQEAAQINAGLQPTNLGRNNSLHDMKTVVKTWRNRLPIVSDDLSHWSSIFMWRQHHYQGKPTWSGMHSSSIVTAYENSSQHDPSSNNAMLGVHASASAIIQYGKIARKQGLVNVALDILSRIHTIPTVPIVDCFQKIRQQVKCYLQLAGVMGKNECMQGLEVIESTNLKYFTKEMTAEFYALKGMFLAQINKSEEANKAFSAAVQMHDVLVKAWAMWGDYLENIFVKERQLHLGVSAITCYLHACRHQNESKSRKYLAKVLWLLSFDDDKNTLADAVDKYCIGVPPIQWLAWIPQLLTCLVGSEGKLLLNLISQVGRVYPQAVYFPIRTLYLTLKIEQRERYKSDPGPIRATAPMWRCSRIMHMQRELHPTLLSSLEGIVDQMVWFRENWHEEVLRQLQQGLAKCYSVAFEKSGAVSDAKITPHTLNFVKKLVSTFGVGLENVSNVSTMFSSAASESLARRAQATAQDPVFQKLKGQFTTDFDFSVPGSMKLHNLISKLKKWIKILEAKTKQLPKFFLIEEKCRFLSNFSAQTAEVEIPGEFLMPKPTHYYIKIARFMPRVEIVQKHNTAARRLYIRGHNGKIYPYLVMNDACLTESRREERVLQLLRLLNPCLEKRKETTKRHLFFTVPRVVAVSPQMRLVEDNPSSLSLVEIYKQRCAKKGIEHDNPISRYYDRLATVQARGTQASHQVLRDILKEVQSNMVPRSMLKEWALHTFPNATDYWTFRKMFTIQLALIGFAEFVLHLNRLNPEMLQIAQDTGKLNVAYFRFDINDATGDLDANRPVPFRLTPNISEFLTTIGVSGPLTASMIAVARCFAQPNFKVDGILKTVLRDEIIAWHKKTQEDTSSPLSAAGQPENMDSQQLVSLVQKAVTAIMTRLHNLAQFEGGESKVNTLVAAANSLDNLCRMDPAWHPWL

Results are given in words; binding and its absence hold for the method and conditions named. Binding seen in cells or lysates may run through a third protein. Some entries that bind do so weakly or less than the wild type.

Regarding TRRAP (from UniProt Q9Y4A5 1-3859), the binding entry in assay [1] was “binds”.

Consider “Chromodomain helicase DNA-binding protein 8 (CHD8), endogenous (from UniProt Q9HCK8 1-2581)”, for which the binding entry in assay [2] is recorded as “binds”.

These data come from article PMC11914185.
